From patent publication US20020123082A1
Results are given in words; binding and its absence hold for the method and conditions named. In cells and extracts the contact can be indirect. Some entries that bind do so weakly or less than the wild type.

Amino acid sequences for entries named in this document (tags omitted). A change or cut given only in a name is not applied to a line headed by its entry. Residues count along the entry.
UniProt P63208: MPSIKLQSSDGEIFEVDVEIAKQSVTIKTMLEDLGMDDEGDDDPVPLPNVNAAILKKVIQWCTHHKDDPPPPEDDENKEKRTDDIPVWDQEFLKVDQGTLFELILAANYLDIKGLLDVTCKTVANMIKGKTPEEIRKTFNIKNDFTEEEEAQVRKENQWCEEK
human Skp1 (endogenous, HeLa cells): residues 2-163 of P63208
UniProt Q9Y297: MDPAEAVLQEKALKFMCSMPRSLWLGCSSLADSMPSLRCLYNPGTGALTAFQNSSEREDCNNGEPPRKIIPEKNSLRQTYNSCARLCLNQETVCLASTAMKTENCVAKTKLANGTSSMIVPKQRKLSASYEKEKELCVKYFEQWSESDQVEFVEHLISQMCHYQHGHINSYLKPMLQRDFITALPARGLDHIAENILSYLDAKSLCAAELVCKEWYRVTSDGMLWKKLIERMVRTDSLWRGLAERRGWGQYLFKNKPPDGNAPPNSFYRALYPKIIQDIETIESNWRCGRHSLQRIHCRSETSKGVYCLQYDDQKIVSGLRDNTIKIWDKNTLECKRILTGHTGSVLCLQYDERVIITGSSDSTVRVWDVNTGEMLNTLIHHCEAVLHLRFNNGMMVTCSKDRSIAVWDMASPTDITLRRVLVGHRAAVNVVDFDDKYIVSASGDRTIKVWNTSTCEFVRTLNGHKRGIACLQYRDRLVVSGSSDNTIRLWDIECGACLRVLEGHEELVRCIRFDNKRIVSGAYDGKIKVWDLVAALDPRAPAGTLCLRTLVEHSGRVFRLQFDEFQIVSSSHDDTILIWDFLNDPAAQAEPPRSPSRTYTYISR
UniProt Q9UKT5: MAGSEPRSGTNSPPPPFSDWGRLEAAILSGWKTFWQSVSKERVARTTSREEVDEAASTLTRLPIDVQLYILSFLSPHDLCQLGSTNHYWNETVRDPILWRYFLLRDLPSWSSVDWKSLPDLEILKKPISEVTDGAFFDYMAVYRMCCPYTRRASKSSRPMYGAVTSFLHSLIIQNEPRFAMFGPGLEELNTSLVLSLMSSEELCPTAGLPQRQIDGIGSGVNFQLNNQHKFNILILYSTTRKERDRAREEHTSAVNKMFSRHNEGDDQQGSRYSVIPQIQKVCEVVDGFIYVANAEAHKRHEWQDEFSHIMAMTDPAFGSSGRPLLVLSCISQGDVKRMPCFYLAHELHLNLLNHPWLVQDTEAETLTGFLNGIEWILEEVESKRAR

How the values were obtained:
[1] = target: human Skp1 (endogenous, HeLa cells) (human) (UniProt P63208); test: anti-Flag co-immunoprecipitation from transfected HeLa cells, immunoblot; endogenous partner
[2] = target: human Skp1 (endogenous, HeLa cells) (human) (UniProt P63208); test: anti-Flag co-immunoprecipitation from transfected HeLa cells, immunoblot
[3] = target: His-tagged Skp1 (human) (UniProt P63208); test: pull-down of in vitro translated 35S-FBP on His-Skp1 Nickel-agarose beads, autoradiography

Substance: Flag-tagged FBP1 (from UniProt Q9Y297 1-605)
- binding [1]: binds
- binding [2]: binds

Substance: Flag-tagged FBP4 (from UniProt Q9UKT5 1-387)
- binding [1]: binds
- binding [2]: binds

Substance: human F-box protein FBP1 (from UniProt Q9Y297 1-605)
- binding [3]: binds
